Reference: US6905813B2, “Processing agent for silver halide color photosensitive material and processing method thereof” (Chugai Photo Chemical Co., Ltd., priority 2001, dated 2005)

Assay: Running Test 2 (Example 2): bleaching and fixing solution with additive, automatic developer QSS1201, large processing amount
Set-up: key to Existence/non-existence of attached materials: −: No attachment of decomposed materials.; +: Very little amount of attachment of decomposed materials on the filter.; ++: Little amount of attachment of decomposed materials on the filter.; +++: Large amount of attachment of decomposed materials on the filter
Conditions: for Existence/non-existence of attached materials: decomposed material on filter, naked eye, additive 0.35 mol/L (sodium sulfite 0.60), replenishment 35 ml/m2, 1500 L size pictures/day, 1 month; for pH: pH of the running solution after the experiment; for Y-Dmax concentration: visual concentration of yellow patch on control strip after processing, X-rite 310

NCCCCN [1,4-diaminobutane]
Existence/non-existence of attached materials: + | pH: 8.81 | Y-Dmax concentration: 0.38

CCN(CC)CCN [N,N-diethylethylenediamine]
Existence/non-existence of attached materials: − | pH: 7.30 | Y-Dmax concentration: 0.23

CC(N)CCN (stereo not drawn) [1,3-diaminobutane]
Existence/non-existence of attached materials: + | pH: 8.70 | Y-Dmax concentration: 0.32

NCCNCCNCCN [triethylenetetramine]
Existence/non-existence of attached materials: − | pH: 7.20 | Y-Dmax concentration: 0.23
